Experimental data: PubChem BioAssay AID1259424 (University of Nebraska Medical Center, 2018)

- Assay: 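Seek colon cancer survival genes behaving like KSR1, using a six-gene signature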 (primary screen)
- Cells: human HCT116 colon cancer cells
- Reagents: siRNA pool against human genes, 50 nM
- Detection: 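Six signature mRNAs by branched-DNA multiplex assay, scaled to two housekeeping genes and non-targeting median, log2; matched to mean KSR1 knockdown profile by Pearson correlation and euclidean distance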
- Reading the numbers: mean correlation with KSR1 profile and KSR1 correlation: higher = expression change more like KSR1 knockdown; mean distance from KSR1 profile: higher = expression change less like KSR1 knockdown
Here is one part, drawn at random, of about 14,000 reagents tested. 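Higher correlation or smaller distance means closer resemblance to KSR1 loss; control wells, including KSR1 knockdowns, recur on many plates.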 The numbers tell different reagents against one gene apart. Not given: the time to read-out.

no.	gene symbol	reagent no.	mean correlation with KSR1 profile	mean distance from KSR1 profile	KSR1 correlation, replicate 1	KSR1 correlation, replicate 2	KSR1 correlation, replicate 3
1	ACVR1B	1	0.175	2.32	0.461	0.107	-0.353
2	PDHA1	1	0.21	2.61	0.251	0.17	0.15
3	NDUFV2	1	-0.209	4.24	-0.261	-0.146	-0.271
4	SMARCD3	1	0.292	1.75	0.295	0.489	0.271
5	TTPAL	1	0.236	2.56	0.235	0.411	0.117
6	INPPL1	1	0.0592	1.78	-0.0488	0.0167	0.17
7	EVL	1	0.162	2.16	0.383	0.272	-0.18
8	CADM1	1	0.0346	1.31	0.356	-0.444	-0.0749
9	PLA2G3	1	0.539	0.966	0.647	0.607	0.228
10	MTR	1	-0.285	2.69	-0.276	-0.238	-0.163
11	GFOD1	1	-0.299	1.95	-0.0959	-0.165	-0.26
12	GFOD1	2	0.576	1.49	0.535	0.513	0.553
13	ADCK1	1	0.0706	2.32	0.15	-0.131	-0.0782
14	TAF1A	1	0.111	1.09	0.201	0.0833	0.225
15	BMPR1B	1	0.162	2.59	0.0452	-0.251	0.424
16	DNPH1	1	-0.637	2.82	-0.695	-0.734	-0.65
17	TSBP1	1	-0.279	3.6	-0.137	-0.34	-0.331
18	MRGPRX3	1	0.759	1.87	0.8	0.844	0.722
19	GEMIN8	1	-0.627	2.25	-0.657	-0.672	-0.612
20	VPS9D1	1	-0.275	3.99	-0.247	-0.239	-0.156
21	GTSE1	1	-0.251	1.85	-0.107	-0.39	-0.309
22	KAT8	1	0.433	1.95	0.404	0.268	0.492
23	FCGRT	1	0.385	1.28	0.382	0.429	0.423
24	CDH3	1	-0.129	1.83	-0.118	-0.204	-0.265
25	MBD3	1	0.118	2.65	0.123	0.0794	-0.0731
26	TTI1	1	0.316	2.32	0.247	0.454	0.311
27	RILP	1	0.179	3.56	0.114	0.102	0.0965
28	SPECC1L	1	0.176	1.8	0.224	0.142	0.0986
29	SLC6A12	1	0.389	1.93	0.227	0.395	0.624
30	HDHD3	1	0.654	1.26	0.0694	0.564	0.746
31	RWDD2B	1	-0.291	1.71	-0.217	-0.484	-0.158
32	PDYN	1	-0.12	0.906	0.274	0.757	-0.521
33	MIPEP	1	0.52	0.948	0.439	0.561	0.516
34	GPRC5C	1	0.664	2.56	0.64	0.687	0.602
35	CDC37	1	0.0826	1.98	0.327	0.142	-0.00443
36	LY6G6C	1	0.582	1.25	0.372	0.511	0.545
37	POLR3C	1	-0.394	1.78	-0.252	-0.417	-0.484
38	LIN37	1	-0.264	3.73	0.4	0.435	-0.56
39	B4GALT5	1	-0.488	3.05	-0.565	-0.496	-0.299
40	MESD	1	-0.588	4.55	-0.58	-0.629	-0.562
41	APEX2	1	0.091	3.95	-0.15	0.0671	-0.272
42	MYBL1	1	0.0683	1.53	0.26	0.455	-0.0243
43	EXOSC3	1	-0.579	2.72	-0.485	-0.258	-0.344
44	GABRA4	1	-0.262	2.47	-0.143	-0.352	-0.366
45	RHBDD1	1	0.918	2.03	0.866	0.806	0.874
46	SLF2	1	-0.204	1.9	-0.264	-0.2	-0.159
47	KDELR2	1	-0.348	1.35	0.155	0.109	-0.678
48	POLG2	1	-0.624	1.72	-0.449	-0.742	-0.527
49	TUBE1	1	-0.0417	1.78	0.00395	-0.232	-0.138
50	SERPINF1	1	0.378	3.91	0.355	0.465	0.317

Taken from above.
B4GALT5, KSR1 correlation, replicate 1 = -0.565
CDH3, KSR1 correlation, replicate 1 = -0.118
Value for GPRC5C in “KSR1 correlation, replicate 3”: 0.602
Under “KSR1 correlation, replicate 1”, ADCK1 has 0.15
TTPAL, mean correlation with KSR1 profile = 0.236
CDC37, mean distance from KSR1 profile = 1.98
